We go through 13 molecules from publication doi:10.1101/2023.08.07.552250.

No constants are given. Whether binding was seen depends on the method and setting. Some entries that bind do so weakly or less than the wild type.

Sequences and labels used below:
T1: serine/arginine-rich 45 (SR45), SR45.1 isoform (Arabidopsis thaliana) (UniProt Q9SEE9)
T1 sequence: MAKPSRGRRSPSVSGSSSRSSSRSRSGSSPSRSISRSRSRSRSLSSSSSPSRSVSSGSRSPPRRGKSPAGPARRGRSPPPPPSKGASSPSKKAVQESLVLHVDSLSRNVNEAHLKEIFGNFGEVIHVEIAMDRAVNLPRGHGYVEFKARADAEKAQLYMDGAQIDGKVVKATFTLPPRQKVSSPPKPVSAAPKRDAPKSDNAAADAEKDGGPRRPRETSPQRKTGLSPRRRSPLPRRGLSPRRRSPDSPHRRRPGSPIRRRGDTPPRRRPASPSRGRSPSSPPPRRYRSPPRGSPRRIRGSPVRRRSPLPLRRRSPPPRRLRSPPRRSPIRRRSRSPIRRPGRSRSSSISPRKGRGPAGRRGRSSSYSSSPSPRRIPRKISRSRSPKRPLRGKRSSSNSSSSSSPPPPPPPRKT

B1: SR34b (protein, UniProt F4JHI7 1-278)
chain: MSSRSSRTIYVGNLPGDIREREVEDLFSKYGPVVQIDLKIPPRPPGYAFVEFEDARDADDAIYGRDGYDFDGHHLRVELAHGGRRSSHDARGSYSGRGRGGRGGGDGGGRERGPSRRSEYRVVVSGLPSSASWQDLKDHMRKGGEVCFSQVFRDGRGTTGIVDYTSYEDMKYALDDTEFRNAFSHEYVRVREYDSRRDSRSPSRGRSYSKSRSRGRSPSRSRSRSRSRSKSRSPKAKSLRRSPAKSTSRSPRSRSRSKSRSLSPRGWVTVERHWIALI
B2: SR30 (protein, UniProt Q9XFR5 1-268)
chain: MSSRWNRTIYVGNLPGDIRKCEVEDLFYKYGPIVDIDLKIPPRPPGYAFVEFEDPRDADDAIYGRDGYDFDGCRLRVEIAHGGRRFSPSVDRYSSSYSASRAPSRRSDYRVLVTGLPPSASWQDLKDHMRKAGDVCFSEVFPDRKGMSGVVDYSNYDDMKYAIRKLDATEFRNAFSSAYIRVREYESRSVSRSPDDSKSYRSRSRSRGPSCSYSSKSRSVSPARSISPRSRPLSRSRSLYSSVSRSQSRSKSRSRSRSNSPVSPVISG
B3: GRP7 (protein, UniProt Q03250 1-176)
chain: MASGDVEYRCFVGGLAWATDDRALETAFAQYGDVIDSKIINDRETGRSRGFGFVTFKDEKAMKDAIEGMNGQDLDGRSITVNEAQSRGSGGGGGHRGGGGGGYRSGGGGGYSGGGGSYGGGGGRREGGGGYSGGGGGYSSRGGGGGSYGGGRREGGGGYGGGEGGGYGGSGGGGGW
B4: MOS14 (MODIFIER OF SNC1-1, 14) (protein, UniProt Q8GUL2 1-958)
chain: MEHQNAVKEALNALYHHPDDTVRVHADRWLQNFQGTLDAWQVADNLLHDSSSNLETLIFCSQTLRSKVQRDFEELPPGAFQKLRQSLTTLLKKFHKGPPKVRTQISIAVAALAVHVPAADWGDGGIISWLRDEMHMHPEYVPGFLELLTVLPEETFNYKIAARPDRRRQFEKELTSQMEAALSILSACLKISELKEQVLEAFASWLRLRHGIPGTVLACHPLVHAALSSLNCDPLSEASVNVISELIHHTASPSSGGISAQTPLIQVIVPQILSLQAHLRDSSKDEEDVKAIGRLFADVGDSYVELIATGSDEPMVIVHALLEVTAHPEFDIASMTFNFWHSLQLMLTKRESYSSLGSEASIEVERNRRLHIFQPAYQSLVSLVGFRVQYPEDYQGLSYEDLKEFKQTRYAVADVLIDAALILGGDTTLKILYMKLLEANAQTGNNFQDWRPAEAILFCIWAISNYVSVVEAEVMPQVMALLQNLPQQAQLLQTACLLVGAYSKWLNAAPASVSILPSIIRILMSGMGTSEDCAAAAALAFRHTCDDCRKNLCGYFEDLFNIYCMAINGGGGYKVSAEDSLNLVEALGMVVTELPLDQAKGALEKLCFSAASPLEEAAKEDLEKKHARELTVHIDRFAFLFRYVNHPEAVAAEINKHWAIFRVIFDARPWDMRTMESLCRACKYAVRTSGRYIIDTIGEMLEKIQFHYQQHHQPCFLYLSSEVIKIFGSDPSCAVYLKNLIETLFAHTTCLMTSIKEVTARPDIADDCFLLASRCLRYCPHLFIPSPIFPALVNCAMIGITVQHREACHSILTFLTDIFDLEKSVNEEQFVRIRDNIIIPRGATITRILIASLAGALPSSRLDTVTYSLLALTRTYRLQAVSWAKESVSLIPRTALTETESTKFLQALSDIAYGADVNSLIGQVEELSDVCRRNRTVQELVQAALKPLELNLVTAPVS
B5: GRP8 (protein, UniProt Q03251 1-169)
chain: MSEVEYRCFVGGLAWATNDEDLQRTFSQFGDVIDSKIINDRESGRSRGFGFVTFKDEKAMRDAIEEMNGKELDGRVITVNEAQSRGSGGGGGGRGGSGGGYRSGGGGGYSGGGGGGYSGGGGGGYERRSGGYGSGGGGGGRGYGGGGRREGGGYGGGDGGSYGGGGGGW
B6: serine/arginine-rich 45 (SR45), SR45.1 isoform (protein, UniProt Q9SEE9-1 1-414)
chain: MAKPSRGRRSPSVSGSSSRSSSRSRSGSSPSRSISRSRSRSRSLSSSSSPSRSVSSGSRSPPRRGKSPAGPARRGRSPPPPPSKGASSPSKKAVQESLVLHVDSLSRNVNEAHLKEIFGNFGEVIHVEIAMDRAVNLPRGHGYVEFKARADAEKAQLYMDGAQIDGKVVKATFTLPPRQKVSSPPKPVSAAPKRDAPKSDNAAADAEKDGGPRRPRETSPQRKTGLSPRRRSPLPRRGLSPRRRSPDSPHRRRPGSPIRRRGDTPPRRRPASPSRGRSPSSPPPRRYRSPPRGSPRRIRGSPVRRRSPLPLRRRSPPPRRLRSPPRRSPIRRRSRSPIRRPGRSRSSSISPRKGRGPAGRRGRSSSYSSSPSPRRIPRKISRSRSPKRPLRGKRSSSNSSSSSSPPPPPPPRKT
B7: SR34a (protein, UniProt A2RVS6 1-300)
chain: MSGRFSRSIYVGNLPGDIREHEIEDIFYKYGRIVDIELKVPPRPPCYCFVEFEHSRDAEDAIKGRDGYNLDGCRLRVELAHGGRGQSSSDRRGGYGGGGSGYGGGGGGGGSARFGVSRHSEFRVIVRGLPSSASWQDLKDHMRKAGDVCFAEVTRDSDGTYGVVDYTNYDDMKYAIRKLDDTEFRNPWARGFIRVKKYESSRSRSRSPSRSRSRSRSRSRSRGRGRSHSRSRSLSRSKSPRKDLSKSPRRSLSRSISKSRSPSPDKKKSPPRAMSRSKSRSRSRSRSPSKSPPKVREGSV
B8: Y14 (protein, UniProt F4I9J7 1-202)
chain: MANIESEAVDFEPEEDDLMDEEGTAIDGADVSPRAGHPRLKSAIAGANGESAKKTKGRGFREEKDSDRQRRLSSRDFESLGSDGRPGPQRSVEGWIILVSGVHEETQEEDITNAFGDFGEIKNLNLNLDRRSGYVKGYALIEYEKKEEAQSAISAMNGAELLTQNVSVDWAFSSGPSGGESYRRKNSRYGRSQRSRSPRRRY
B9: SCL33 (protein, UniProt Q9SEU4 1-287)
chain: MRGRSYTPSPPRGYGRRGRSPSPRGRYGGRSRDLPTSLLVRNLRHDCRQEDLRKSFEQFGPVKDIYLPRDYYTGDPRGFGFVQFMDPADAADAKHHMDGYLLLGRELTVVFAEENRKKPTEMRARERGGGRFRDRRRTPPRYYSRSRSPPPRRGRSRSRSGDYYSPPPRRHHPRSISPREERYDGRRSYSRSPASDGSRGRSLTPVRGKSRSLSPSPRRSISRSPRRSRSPSPKRNRSVSPRRSISRSPRRSRSPRRSRRSYTPEPARSRSQSPHGGQYDEDRSPSQ
B10: MAGO (protein, UniProt O23676 1-150)
chain: MAAEEATEFYLRYYVGHKGKFGHEFLEFEFREDGKLRYANNSNYKNDTIIRKEVFLTPAVLKECKRIVSESEILKEDDNNWPEPDRVGKQELEIVLGNEHISFATSKIGSLVDCQSSNDPEGLRIFYYLVQDLKCLVFSLISLHFKIKPI
B11: Cyp65 (protein, UniProt Q9FJX0 1-595)
chain: MGKKQHSKDRMFITKTEWATEWGGAKSKENRTPFKSLPYYCCALTFLPFEDPVCTIDGSVFEITTIVPYIRKFGKHPVTGAPLKGEDLIPLIFHKNSEGEYHCPVLNKVFTEFTHIVAVKTTGNVFCYEAIKELNIKTKNWKELLTEEPFTRADLITIQNPNAVDGKVTVEFDHVKNGLKIDDEELKKMNSDPAYNINVSGDIKHMLADLGTDKAKEIALHGGGGNKARNERAAAIAAILESRSKIKEVSKAEQPKQTYSVVDAASASVFGRSADAAKAGSSDKTAARIAMHMAGDRTPVNSKMVKSRYSSGAASRSFTSSAFTPVTKNDFELIKVEKNPKKKGYVQFQTTHGDLNIELHCDIAPRACENFITLCERGYYNGVAFHRSIRNFMIQGGDPTGTGKGGESIWGKPFKDEPNSKLLHSGRGVVSMANSGPHTNGSQFFVLYKSATHLNYKHTVFGGVVGGLATLAAMENVPVDESDRPLEEIKIIEASVFVNPYTELDEEEEKEKAEKEKNEDKDIEKIGSWYSNPGSGTTEAGAGGGGVGKYLKAMSSTATKDTKGSLDSDISTIGVSKKRKTTASASTGFKDFSSW
B12: Cyp71 (protein, UniProt Q8W4D0 1-631)
chain: MEEESKNGGTTIPTEELAVVAVPPVVEEEEPMVGPGPAPRGKRKRPLQFEQAYLDSLPSANMYEKSYMHRDVVTHVAVSAAEFFISGSMDGHLKFWKKKGVGIEFAKHFRSHLGPIEGLAVSIDGLLCCTISNDHAVKIYDVVNYDMMAMIRLPYIPGAVEWVYKQGDVKAKLAVSDRDSLFVHIYDPRSGSNEPIASKEIHMNPIKVMKYNPVSDTMISGDTKGIIEYWSATTLQFPEDEVNFKLKSDTNLFEIIKCKTTISAIEVSPDGKQFSITAPDRRIRVFWFRTGKLRRVYDESLVVAQDLQRSDAPLYRLEAIDFGRRMAVEKELEKTESAPQPNAVFDESSNFLIYATFLGIKVINLHTNTVARILGKVESNERYLRVALYQGDQGGKKVRKIPAAAANVNESKEPLTDPTILCCAFKKHRIYMFSRREPEEPEDASQGRDVFNEKPAADELMSVSDIGNSATTSLPENVIMHTTLGDIHMKLYPEECPKTVENFTTHCRNGYYDNHLFHRVIRGFMIQTGDPLGDGTGGQSIWGREFEDEFHKSLRHDRPFTLSMANAGPNTNGSQFFITTVATPWLDNKHTVFGRVVKGMDVVQGIEKVKTDKNDRPYQDVKILNVTVPKS
B13: SR45.2 splicing isoform of SR45 (protein, UniProt Q9SEE9-2 1-407)
chain: MAKPSRGRRSPSVSGSSSRSSSRSRSGSSPSRSISRSRSRSRSLSSSSSPSRSVSSGSRSPPRRGKSPAGPARRGRSPPPPPSKGASSPSKKAVQESLVLHVDSLSRNVNEAHLKEIFGNFGEVIHVEIAMDRAVNLPRGHGYVEFKARADAEKAQLYMDGAQIDGKVVKATFTLPPRQKVSSPPKPVSAAPKRDAPKSDNAAADAEKDGGPRRPRERLSPRRRSPLPRRGLSPRRRSPDSPHRRRPGSPIRRRGDTPPRRRPASPSRGRSPSSPPPRRYRSPPRGSPRRIRGSPVRRRSPLPLRRRSPPPRRLRSPPRRSPIRRRSRSPIRRPGRSRSSSISPRKGRGPAGRRGRSSSYSSSPSPRRIPRKISRSRSPKRPLRGKRSSSNSSSSSSPPPPPPPRKT

The target of the experiment is T1, serine/arginine-rich 45 (SR45), SR45.1 isoform (Arabidopsis thaliana). Briefly: two-hybrid.
As to B1, the binding entry is recorded as “binds”.

Take B2: the binding result is on record as “binds”.

Consider B3, for which the binding entry is “no binding”.

On to B4, for which the binding entry is given as “binds”.

As for B5, the binding result is “no binding”.

On to B6, for which the binding result was “no binding”.

In the case of B7, the binding result is “binds”.

On to B8, for which the binding entry is on record as “binds”.

As for B9, the binding entry was “binds”.

As to B10, the binding result was “binds”.

Consider B11, for which the binding entry is listed as “no binding”.

Turning to B12, the binding result is on record as “no binding”.

For B13, the binding result is “no binding”.
